± gives the standard deviation of the averaged measurements. The entries are a selection whose mix differs from that of the whole data set.
Columns and labels:
Assay in all cases: NP40-soluble protein abundance relative to vehicle (solubility fold change) (ratio); higher = more soluble protein in presence of AMP-PNP
UniProt Q9NUS5 = target: T1, UniProt Q9NUS5
T1 sequence (whole entry): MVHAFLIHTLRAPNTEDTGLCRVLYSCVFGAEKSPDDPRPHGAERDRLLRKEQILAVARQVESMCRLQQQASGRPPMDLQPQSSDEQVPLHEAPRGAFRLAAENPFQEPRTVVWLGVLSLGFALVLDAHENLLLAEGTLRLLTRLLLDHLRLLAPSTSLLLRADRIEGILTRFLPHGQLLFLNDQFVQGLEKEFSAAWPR
Outline: (§1)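 Jurkat crude lysate (Dounce-homogenised) was treated with eight concentrations from 0.1 to 10 mM for 10 min at room temperature, then 3 min at 37 °C. It was solubilised with 0.8% NP40 and benzonase (60 min, 4 °C) and ultracentrifuged, and the supernatant was TMT-labelled for LC-MS/MS. Intensities were vsn-normalised, and the value is the fold change against the NP40-processed vehicle per replicate, from three independent experiments.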

[1] = target: T2, UniProt Q9NUU7 and related entries
T2 sequence (whole entry): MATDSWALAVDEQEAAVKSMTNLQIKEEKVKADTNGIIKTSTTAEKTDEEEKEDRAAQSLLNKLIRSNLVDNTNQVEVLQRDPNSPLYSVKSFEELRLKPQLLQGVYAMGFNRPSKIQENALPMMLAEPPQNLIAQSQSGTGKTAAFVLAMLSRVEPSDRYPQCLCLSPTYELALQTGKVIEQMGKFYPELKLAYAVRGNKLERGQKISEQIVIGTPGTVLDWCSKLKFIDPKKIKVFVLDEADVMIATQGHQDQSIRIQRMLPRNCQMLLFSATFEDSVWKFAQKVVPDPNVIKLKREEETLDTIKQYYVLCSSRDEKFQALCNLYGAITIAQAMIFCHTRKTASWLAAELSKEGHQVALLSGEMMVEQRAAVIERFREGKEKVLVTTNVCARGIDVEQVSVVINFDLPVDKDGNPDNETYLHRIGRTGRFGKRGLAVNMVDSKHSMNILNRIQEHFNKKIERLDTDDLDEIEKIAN
Outline: as §1

[2] = target: T3, UniProt Q9NVH6 and related entries
T3 sequence (whole entry): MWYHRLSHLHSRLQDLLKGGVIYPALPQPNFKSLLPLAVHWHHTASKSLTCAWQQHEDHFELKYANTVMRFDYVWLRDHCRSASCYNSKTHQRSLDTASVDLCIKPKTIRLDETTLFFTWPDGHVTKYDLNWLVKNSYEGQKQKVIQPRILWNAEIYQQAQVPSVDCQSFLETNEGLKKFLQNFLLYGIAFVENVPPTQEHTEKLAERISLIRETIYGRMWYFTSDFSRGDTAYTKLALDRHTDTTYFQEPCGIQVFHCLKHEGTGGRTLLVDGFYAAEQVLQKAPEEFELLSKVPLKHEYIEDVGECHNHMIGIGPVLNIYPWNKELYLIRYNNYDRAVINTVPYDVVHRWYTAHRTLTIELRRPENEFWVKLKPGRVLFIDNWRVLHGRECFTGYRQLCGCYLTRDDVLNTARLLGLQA
Outline: as §1

[3] = target: T4, UniProt Q9NZ52-3|Q9NZ52-4|Q9NZ52 and related entries
T4 sequence (whole entry): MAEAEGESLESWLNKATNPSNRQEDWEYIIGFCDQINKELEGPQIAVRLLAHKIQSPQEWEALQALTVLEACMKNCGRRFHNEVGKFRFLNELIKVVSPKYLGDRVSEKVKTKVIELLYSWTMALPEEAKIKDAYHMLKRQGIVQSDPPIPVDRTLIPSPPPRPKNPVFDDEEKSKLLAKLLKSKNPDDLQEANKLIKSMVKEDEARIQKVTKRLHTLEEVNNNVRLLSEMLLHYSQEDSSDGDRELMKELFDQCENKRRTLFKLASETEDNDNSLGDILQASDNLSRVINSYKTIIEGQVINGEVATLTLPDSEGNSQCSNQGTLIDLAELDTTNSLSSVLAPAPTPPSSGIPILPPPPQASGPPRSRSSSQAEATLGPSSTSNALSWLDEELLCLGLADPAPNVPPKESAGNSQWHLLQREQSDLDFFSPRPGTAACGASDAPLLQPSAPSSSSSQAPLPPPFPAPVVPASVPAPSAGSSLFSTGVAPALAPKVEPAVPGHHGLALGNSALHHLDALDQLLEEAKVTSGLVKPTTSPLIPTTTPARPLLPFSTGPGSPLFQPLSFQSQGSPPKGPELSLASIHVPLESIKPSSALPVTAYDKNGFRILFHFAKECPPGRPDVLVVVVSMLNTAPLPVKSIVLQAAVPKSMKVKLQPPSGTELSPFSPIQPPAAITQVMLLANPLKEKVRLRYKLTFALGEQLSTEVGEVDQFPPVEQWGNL
Outline: as §1

UniProt Q9P109 = target: T5, UniProt Q9P109
T5 sequence (whole entry): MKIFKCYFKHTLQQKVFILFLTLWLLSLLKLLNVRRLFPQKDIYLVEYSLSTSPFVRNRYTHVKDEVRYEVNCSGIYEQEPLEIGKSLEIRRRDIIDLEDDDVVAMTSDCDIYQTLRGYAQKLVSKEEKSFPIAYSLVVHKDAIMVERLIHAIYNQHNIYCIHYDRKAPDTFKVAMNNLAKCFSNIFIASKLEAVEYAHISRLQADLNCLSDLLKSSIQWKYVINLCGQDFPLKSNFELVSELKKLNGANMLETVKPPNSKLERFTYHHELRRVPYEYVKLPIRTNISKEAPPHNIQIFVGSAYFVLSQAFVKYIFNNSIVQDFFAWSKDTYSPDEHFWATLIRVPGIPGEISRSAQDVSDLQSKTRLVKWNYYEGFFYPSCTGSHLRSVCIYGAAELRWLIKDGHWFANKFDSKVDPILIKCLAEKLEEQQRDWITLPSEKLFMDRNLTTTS
Outline: as §1

## Nc1ncnc2c1ncn2[C@@H]1O[C@H](COP(=O)(O)OP(=O)(O)NP(=O)(O)O)[C@@H](O)[C@H]1O [adenylyl imidodiphosphate]
UniProt Q9NUS5; concentration: 8mM
  NP40-soluble protein abundance: 0.938 ± 0.038
UniProt Q9NUS5; concentration: 10mM
  NP40-soluble protein abundance: 0.936 ± 0.041
[1]; concentration: 1mM
  NP40-soluble protein abundance: 1.04 ± 0.017
[1]; concentration: 2mM
  NP40-soluble protein abundance: 0.987 ± 0.048
[1]; concentration: 4mM
  NP40-soluble protein abundance: 1.02 ± 0.031
[1]; concentration: 6mM
  NP40-soluble protein abundance: 1.028 ± 0.01
[1]; concentration: 8mM
  NP40-soluble protein abundance: 1.03 ± 0.013
[1]; concentration: 10mM
  NP40-soluble protein abundance: 1 ± 0.011
[2]; concentration: 1mM
  NP40-soluble protein abundance: 0.969 ± 0.051
[2]; concentration: 2mM
  NP40-soluble protein abundance: 0.9817 ± 0.0096
[2]; concentration: 4mM
  NP40-soluble protein abundance: 0.984 ± 0.06
[2]; concentration: 6mM
  NP40-soluble protein abundance: 0.972 ± 0.065
[2]; concentration: 8mM
  NP40-soluble protein abundance: 0.985 ± 0.018
[2]; concentration: 10mM
  NP40-soluble protein abundance: 0.969 ± 0.046
[3]; concentration: 1mM
  NP40-soluble protein abundance: 1.02 ± 0.027
[3]; concentration: 2mM
  NP40-soluble protein abundance: 1.03 ± 0.043
[3]; concentration: 4mM
  NP40-soluble protein abundance: 1 ± 0.026
[3]; concentration: 6mM
  NP40-soluble protein abundance: 0.992 ± 0.035
[3]; concentration: 8mM
  NP40-soluble protein abundance: 0.963 ± 0.028
[3]; concentration: 10mM
  NP40-soluble protein abundance: 0.964 ± 0.025
UniProt Q9P109; concentration: 1mM
  NP40-soluble protein abundance: 0.98 ± 0.011
UniProt Q9P109; concentration: 2mM
  NP40-soluble protein abundance: 0.973 ± 0.018
UniProt Q9P109; concentration: 4mM
  NP40-soluble protein abundance: 0.962 ± 0.044
UniProt Q9P109; concentration: 6mM
  NP40-soluble protein abundance: 0.949 ± 0.011
UniProt Q9P109; concentration: 8mM
  NP40-soluble protein abundance: 0.954 ± 0.028
UniProt Q9P109; concentration: 10mM
  NP40-soluble protein abundance: 0.926 ± 0.0081
